# Measured values from ChEMBL document CHEMBL1149390, “Potent CYP19 (aromatase) 1-[(benzofuran-2-yl)(phenylmethyl)pyridine, -imidazole, and -triazole inhibitors: synthesis and biological evaluation” (J Med Chem, 2006).
# Target: T1, Aromatase (Homo sapiens, UniProt P11511)
# T1 sequence (P11511 whole entry): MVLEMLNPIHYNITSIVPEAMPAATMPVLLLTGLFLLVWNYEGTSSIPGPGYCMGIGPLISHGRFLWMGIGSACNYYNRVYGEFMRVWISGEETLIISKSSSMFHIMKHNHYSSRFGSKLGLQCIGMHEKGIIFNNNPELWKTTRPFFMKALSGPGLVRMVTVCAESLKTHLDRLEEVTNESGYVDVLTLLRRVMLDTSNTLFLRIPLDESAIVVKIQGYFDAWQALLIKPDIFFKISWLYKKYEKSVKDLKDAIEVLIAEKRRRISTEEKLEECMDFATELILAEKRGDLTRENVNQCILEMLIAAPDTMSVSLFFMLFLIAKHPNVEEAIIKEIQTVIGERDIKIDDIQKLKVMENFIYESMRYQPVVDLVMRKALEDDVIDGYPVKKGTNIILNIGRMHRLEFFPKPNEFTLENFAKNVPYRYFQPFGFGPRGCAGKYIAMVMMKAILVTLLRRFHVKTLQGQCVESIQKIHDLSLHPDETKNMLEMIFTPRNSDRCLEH
# Test: in vitro
structure (smiles),measurement,value
CC(C)(C#N)c1cc(Cn2cncn2)cc(C(C)(C)C#N)c1 [ANASTROZOLE],selectivity ratio,> 333
